Measured values published in PubChem BioAssay AID540256 (National Center for Advancing Translational Sciences (NCATS), 2011).
The whole screen tested about 300,000 compounds, of which about 3,700 (1.2%) were called active. Inconclusive means that the source gave no clear call. Such entries were picked first, then a sample of the others. Calls follow the shape of the full dose curve; tested in HEK293 cells. Potencies of inconclusive entries are doubtful fits and often do not repeat.

assay: qHTS for Inhibitors of binding or entry into cells for Lassa Virus; conditions: Lassa virus pseudotype entry inhibition, cell reporter; activity change, negative = inhibition: at 37.9 µM (top of the series) unless noted; also: nearly all actives have a fitted effect of over 50% in size
% is scaled to controls: 0 for no effect and ±100 for the full control effect; potency is read from the fitted curve at half-maximal effect.

| Compound | Potency | activity change, negative = inhibition |
| --- | --- | --- |
| Cc1ccc(C)c(C(=O)CSc2nnnn2C(C)C)c1 | inactive | – |
| Cc1ccccc1-c1nc(CN2CCC(C(=O)NCCCN3CC(C)CC(C)C3)CC2)c(C)o1 (stereo not drawn) | inconclusive: 18.3 µM [inhibitor, single point] | – |
| C=CCn1c(=O)c2ccc(C(=O)NCc3ccccc3)cc2n(Cc2ccc(Cl)cc2)c1=O | inconclusive: 17.8 µM [inhibitor, single point] | – |
| COc1ccc2[nH]c(C(=O)NCCCn3ccnc3)cc2c1 | inconclusive: 28.2 µM [inhibitor, single point] | – |
| O=C(CS(=O)(=O)c1cccc2nsnc12)N1CCN(c2ccccc2F)CC1 | inconclusive: 14.1 µM [activator, single point] | – |
| COc1ccc(CC2(C)OC(c3ccccc3)=NN2C(C)=O)cc1 (stereo not drawn) | inconclusive: 1.3 µM [inhibitor, full curve, poor fit] | – |
| Cc1cc(C)c2c(NC(=O)CCl)nn(C)c2n1 | inconclusive: 22.4 µM [inhibitor, single point] | – |
| CCN(c1ccccc1)S(=O)(=O)c1nnc(NC(=O)c2ccccc2OC)s1 | – | inconclusive: 13.9% [activator] [at 46.1 µM] |
| O=C(NCC1CCCO1)C(c1cccs1)N(Cc1ccccc1)C(=O)c1ccc(-c2ccccc2)[nH]1 (stereo not drawn) | inactive | – |
| CCN(CC)S(=O)(=O)c1ccc(C)c(NC(=S)N2CCN(Cc3ccc4c(c3)OCO4)CC2)c1 | inconclusive: 22.4 µM [inhibitor, single point] | – |
| O=C(COc1ccc(Br)cc1Br)NC(=S)Nc1cccc(CO)c1 | inactive | – |
| CCOc1ccc(CN2C(=O)c3ccccc3Sc3ccc(C(=O)NCc4ccco4)cc32)cc1 | inconclusive: 25.1 µM [inhibitor, single point] | – |
| COc1cccc(C2/C(=C(/O)c3cnn(-c4ccccc4)c3C)C(=O)C(=O)N2CCN(C)C)c1 (stereo not drawn) | inactive | – |
| CC(C)(C)S(=O)(=O)/C(C#N)=N/Nc1ccc(S(N)(=O)=O)cc1 | inconclusive: 1.12 µM [inhibitor, full curve, poor fit] | – |
| COCCNc1nc2c(c(=O)n(C)c(=O)n2C)n1Cc1c(F)cccc1Cl | inconclusive: 35.5 µM [inhibitor, single point] | – |
| CCCCCOC(=O)CSc1nc2c(c(=O)[nH]c(=O)n2C)n1Cc1ccc(Cl)cc1 | inactive | – |
| O=C1CC2(CCN(C(=O)c3ccccc3Cl)CC2)Oc2ccccc21 | inconclusive: 1 µM [inhibitor, full curve, poor fit] | – |
| c1ccc(CCNc2ncnc3c2nnn3Cc2ccccc2)cc1 | inconclusive: 13 µM [inhibitor, partial curve, poor fit] | – |
| O=Cc1c[nH]c2ccc(NC(=O)OCc3ccccc3)cc12 | inconclusive: 35.5 µM [inhibitor, single point] | – |
| COc1cccc(N2C(=O)CN(Cc3cc(OC)c(OC)c(OC)c3)C2=S)c1 | inconclusive: 35.5 µM [inhibitor, single point] | – |
| COCCNC(=O)c1ccccc1NC(=O)c1ccccc1N(C)S(C)(=O)=O | inconclusive: 2.82 µM [inhibitor, single point] | – |
| CCOC(=O)C1CCN(S(=O)(=O)c2cn(C)c(C)n2)CC1 | inactive | – |

| Compound | Potency | activity change, negative = inhibition |
| --- | --- | --- |
| Nc1nc(SCC(=O)c2cccc([N+](=O)[O-])c2)n[nH]1 | inactive | – |
| CC(=O)Nc1ccc(NC(=O)C(C)OC(=O)c2cccc(S(=O)(=O)N3CCCC3)c2)cc1 (stereo not drawn) | inactive | – |
| Cc1cc(C)c(S(C)(=O)=O)c(S(=O)(=O)c2ccc(Cl)cc2)n1 | inactive | – |
| Cc1ccc(N(CC(=O)NC2CCCCC2)C(=O)Cn2nnc(-c3ccc(C)o3)n2)cc1 | inconclusive: 1 µM [inhibitor, single point] | – |
| O=C(c1cccc(N2C(=O)C3C4C=CC(C4)C3C2=O)c1)N1CCN(c2ccc(F)cc2)CC1 (stereo not drawn) | inconclusive: 35.5 µM [inhibitor, single point] | – |
| Cn1c(NC(=O)c2cc(-c3ccc4c(c3)OCO4)nc3ccccc23)cc(=O)n(C)c1=O | inactive | – |
| CC1CCCC(NC(=S)NC(=O)c2cncc(Br)c2)C1C (stereo not drawn) | inconclusive: 11.6 µM [inhibitor, partial curve, poor fit] | – |
| CN(c1ccc(C(=O)NCc2cccnc2)cc1)S(=O)(=O)c1ccc(Cl)cc1 | inconclusive: 35.5 µM [inhibitor, single point] | – |
| COc1ccc(NC(=O)c2ccc3c(=O)n(-c4ccc(OC)cc4OC)c(=S)[nH]c3c2)c(OC)c1 | inactive | – |
| COc1ccccc1-c1c(C)oc2c(CN3CCCCC3C)c(O)ccc2c1=O (stereo not drawn) | inconclusive: 15.8 µM [inhibitor, single point] | – |
| CSCCC(NC(=O)c1ccco1)C(=O)NCCc1ccc(Cl)cc1 (stereo not drawn) | inactive | – |
| Cc1ccc(NC(=O)C2CCN(S(=O)(=O)c3ccc4c(c3)CC(C)N4C(=O)C3CCC3)CC2)nc1 (stereo not drawn) | inconclusive: 5.62 µM [inhibitor, full curve, poor fit] | – |
| Cc1ccc(C(=O)Nc2ccc3c(c2)ncn3C)cc1 | inconclusive: 15.8 µM [inhibitor, partial curve, poor fit] | – |
| Cc1ccc(C2=NN(CC(=O)NCCc3ccc(Cl)cc3)C(=O)CC2)cc1 | inactive | – |
| CC1CCCC(NC(=O)CSc2ccc(F)cc2)C1C (stereo not drawn) | inconclusive: 0.0183 µM [inhibitor, full curve, poor fit] | – |
| COc1ccc(C(=O)NC2CCN(C(=O)NCc3ccccc3)CC2)cc1 | inactive | – |
| O=[N+]([O-])c1ccc(Oc2cccc3cccnc23)c(Cl)c1 | inactive | – |
| CN=C1c2ccccc2CN1c1cccc(C(=O)OC)c1 | inconclusive: 35.5 µM [activator, single point] | – |
| CN(C)S(=O)(=O)c1cccc(C(=O)NCCc2ccccc2)c1 | inconclusive: 8.91 µM [inhibitor, partial curve, poor fit] | – |
| COc1ccccc1NC(=S)NCc1ccc(S(N)(=O)=O)cc1 | inconclusive: 0.282 µM [inhibitor, full curve, poor fit] | – |
| COC(=O)c1ccc(NC(=O)c2cn(-c3ccccc3)nc2-c2ccncc2)cc1 | inactive | – |

Single values from the results shown:
O=C(COc1ccc(Br)cc1Br)NC(=S)Nc1cccc(CO)c1 | Potency: inactive
Cc1ccc(C)c(C(=O)CSc2nnnn2C(C)C)c1 | Potency: inactive
O=C1CC2(CCN(C(=O)c3ccccc3Cl)CC2)Oc2ccccc21 | Potency: inconclusive: 1 µM [inhibitor, full curve, poor fit]

In a second layout: 2 of the compounds above.
Cc1cc(C)c(S(C)(=O)=O)c(S(=O)(=O)c2ccc(Cl)cc2)n1
  Potency: inactive
Cc1ccc(N(CC(=O)NC2CCCCC2)C(=O)Cn2nnc(-c3ccc(C)o3)n2)cc1
  Potency: inconclusive: 1 µM [inhibitor, single point]
